# Values from PubChem BioAssay AID602196 (INSERM, 2012).
# Assay: 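Modifiers of cisplatin sensitivity in A549 cells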
# Cell system: human A549 lung cancer cells
# Reagents: siRNA pair against human genes
# Duration: 48 h transfection before cisplatin; time from cisplatin to read-out not stated
# Conditions: cisplatin at a dose killing half of control-siRNA cells; exact dose and duration not given
# Detection: 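Shift in cisplatin death relative to control siRNA, from -50 (all cells die) to +50 (no cells die); siRNAs harmful on their own scored 0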
# Reading the numbers: two-siRNA summed score (-2 to +2): higher = both siRNAs protect from cisplatin killing; -2 means both sensitise; mean protection from cisplatin (shift in death) and protection from cisplatin (shift in death), siRNA C and protection from cisplatin (shift in death), siRNA D: higher = protection from cisplatin killing
# Hit rule: 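Each siRNA scores 0 if harmful alone by LDH or WST-1, otherwise +1 if it reduces and -1 if it increases cisplatin killing; a gene is active when both siRNAs agree (sum +2 or -2)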
# Calls: active = both siRNAs shift cisplatin killing the same way; inactive = no consistent shift, or siRNA harmful alone
# Here is one part, drawn at random, of about 23,000 deposited reagents. 455 of them (2%) count as active. 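Active includes both protection and sensitisation; some change values fall well beyond the stated -50 to +50 range.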 Unmarked entries are inactive. Reagent sequences are not shown. Not stated in the record: the amount of reagent.
target,PubChem SID,two-siRNA summed score (-2 to +2),mean protection from cisplatin (shift in death) (%),"protection from cisplatin (shift in death), siRNA C (%)","protection from cisplatin (shift in death), siRNA D (%)"
LOC155100,SID131510709,0,3.5,-3.7,10.7
MYO16 (myosin XVI),SID131513721,0,6.9,9,4.9
ZBTB2 (zinc finger and BTB domain containing 2),SID131510757,0,3.6,12.7,-5.5
"ZNF542P (zinc finger protein 542, pseudogene)",SID131514539,0,7.9,7.6,8.3
LOC387763,SID131521149,1,12.4,4.7,20.1
LCNL1 (lipocalin like 1),SID131519089,1,2.2,-14.1,18.4
AMACR (alpha-methylacyl-CoA racemase),SID131514442,0,7.8,2.8,12.8
EEF2 (eukaryotic translation elongation factor 2),SID131523075,2 (active),18.8,17.6,20
LILRP2 (leukocyte immunoglobulin-like receptor pseudogene 2),SID131513743,0,7,12,2
LEF1 (lymphoid enhancer binding factor 1),SID131503822,0,-7.6,0.2,-15.4
HTATIP2 (HIV-1 Tat interactive protein 2),SID131510887,0,3.7,-12.5,20
LOC391303,SID131515311,0,9,12.2,5.7
C22orf39 (chromosome 22 open reading frame 39),SID131508323,0,0.9,-6.2,8
"FRG2DP (FSHD region gene 2 family member D, pseudogene)",SID131514391,0,7.8,10.8,4.7
OR51T1 (olfactory receptor family 51 subfamily T member 1),SID131511382,0,4.3,-5.1,13.7
PPIAP43 (peptidylprolyl isomerase A pseudogene 43),SID131514695,0,8.1,6.5,9.8
PIAS4 (protein inhibitor of activated STAT 4),SID131509271,0,2,5.3,-1.3
OR7E5P (olfactory receptor family 7 subfamily E member 5 pseudogene),SID131509944,0,2.7,5.8,-0.4
KCNC4 (potassium voltage-gated channel subfamily C member 4),SID131501107,-1,-12.3,-3,-21.5
TOGARAM1 (TOG array regulator of axonemal microtubules 1),SID131508149,0,0.7,-7.8,9.2
MSMO1 (methylsterol monooxygenase 1),SID131507469,0,-0.1,4,-4.2
FAM20C (FAM20C golgi associated secretory pathway kinase),SID131517143,0,12.5,6.9,18.1
CAPN3 (calpain 3),SID131501192,-1,-11.6,-29.5,6.3
ZNF268 (zinc finger protein 268),SID131512182,0,5.2,6,4.4
GABRQ (gamma-aminobutyric acid type A receptor subunit theta),SID131502821,0,-27.5,-10.8,-44.2
SYCP2 (synaptonemal complex protein 2),SID131523224,2 (active),28.4,36,20.9
HBM (hemoglobin subunit mu),SID131517039,0,12.3,16,8.5
SPATA22 (spermatogenesis associated 22),SID131514511,0,7.9,12.7,3.1
LOC399917,SID131509997,0,2.7,1.4,4.1
"RAB1A (RAB1A, member RAS oncogene family)",SID131513003,0,6.1,10.5,1.7
C4orf17 (chromosome 4 open reading frame 17),SID131513767,0,7,8.7,5.3
LOC339778,SID131517568,0,13.9,13.9,13.8
BBS10 (Bardet-Biedl syndrome 10),SID131513222,0,6.3,8.9,3.8
REC8 (REC8 meiotic cohesin complex component),SID131500838,-1,-15.4,-5,-25.9
GJB1 (gap junction protein beta 1),SID131503940,0,-7.1,-12.7,-1.4
SMOC2 (SPARC related modular calcium binding 2),SID131506117,0,-2,-1.1,-2.9
TBX18 (T-box transcription factor 18),SID131508931,0,1.6,-0.6,3.8
LCAT (lecithin-cholesterol acyltransferase),SID131502979,0,-16.8,-19.6,-13.9
RTL10 (retrotransposon Gag like 10),SID131506246,0,-1.8,-4.9,1.3
MAPK15 (mitogen-activated protein kinase 15),SID131519219,1,3.8,-3,10.6
BCAN (brevican),SID131522811,1,25.3,18.8,31.7
PCDHB13 (protocadherin beta 13),SID131516998,0,12.1,12.8,11.5
C10orf55 (chromosome 10 putative open reading frame 55),SID131522655,1,21.4,9.8,33
VTI1A (vesicle transport through interaction with t-SNAREs 1A),SID131513327,0,6.5,3.7,9.2
VTI1A (vesicle transport through interaction with t-SNAREs 1A),SID131521446,1,13.5,33.2,-6.2
DRGX (dorsal root ganglia homeobox),SID131509483,0,2.2,7.1,-2.7
FOXR2 (forkhead box R2),SID131506940,0,-0.8,4.8,-6.4
DGAT2L6 (diacylglycerol O-acyltransferase 2 like 6),SID131520073,1,8.6,8.8,8.4
TAPBPL (TAP binding protein like),SID131501089,-1,-12.4,-21.9,-3
ADGRG1 (adhesion G protein-coupled receptor G1),SID131505332,0,-3.3,-9.9,3.3
APLNR (apelin receptor),SID131516417,0,10.8,6.7,15
ZFP30 (ZFP30 zinc finger protein),SID131519494,1,5.9,8.4,3.4
"B3GALT5 (beta-1,3-galactosyltransferase 5)",SID131516918,0,11.9,17.2,6.6
LOC440355,SID131515197,0,8.8,8.1,9.5
ALDH1A2 (aldehyde dehydrogenase 1 family member A2),SID131510147,0,2.9,-0.8,6.7
TMEM37 (transmembrane protein 37),SID131514308,0,7.6,9.8,5.5
LINC02687 (long independently transcribed non-coding RNA 2687),SID131521560,1,14,19,8.9
